Test results: publication PMC3425481
No constants are given. Whether binding was seen depends on the method and setting. Binding seen in cells or lysates may run through a third protein. Some results given as binding are weak or reduced against the parent protein; the word gives no strength.

Protein sequences, listed by entry. Tags and fused reporters are not part of them.
UniProt P84022: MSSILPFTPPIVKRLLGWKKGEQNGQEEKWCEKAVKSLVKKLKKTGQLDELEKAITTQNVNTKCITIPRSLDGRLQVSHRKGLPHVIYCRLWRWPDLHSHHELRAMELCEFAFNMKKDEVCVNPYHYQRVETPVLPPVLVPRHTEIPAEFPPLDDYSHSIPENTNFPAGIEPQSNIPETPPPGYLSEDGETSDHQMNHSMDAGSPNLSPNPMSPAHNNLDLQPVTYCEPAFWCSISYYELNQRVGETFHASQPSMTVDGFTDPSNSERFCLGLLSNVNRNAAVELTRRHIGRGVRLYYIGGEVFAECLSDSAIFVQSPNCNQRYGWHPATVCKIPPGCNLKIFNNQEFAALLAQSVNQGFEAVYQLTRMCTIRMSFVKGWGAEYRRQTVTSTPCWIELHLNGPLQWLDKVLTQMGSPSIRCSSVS
UniProt Q9HAU4: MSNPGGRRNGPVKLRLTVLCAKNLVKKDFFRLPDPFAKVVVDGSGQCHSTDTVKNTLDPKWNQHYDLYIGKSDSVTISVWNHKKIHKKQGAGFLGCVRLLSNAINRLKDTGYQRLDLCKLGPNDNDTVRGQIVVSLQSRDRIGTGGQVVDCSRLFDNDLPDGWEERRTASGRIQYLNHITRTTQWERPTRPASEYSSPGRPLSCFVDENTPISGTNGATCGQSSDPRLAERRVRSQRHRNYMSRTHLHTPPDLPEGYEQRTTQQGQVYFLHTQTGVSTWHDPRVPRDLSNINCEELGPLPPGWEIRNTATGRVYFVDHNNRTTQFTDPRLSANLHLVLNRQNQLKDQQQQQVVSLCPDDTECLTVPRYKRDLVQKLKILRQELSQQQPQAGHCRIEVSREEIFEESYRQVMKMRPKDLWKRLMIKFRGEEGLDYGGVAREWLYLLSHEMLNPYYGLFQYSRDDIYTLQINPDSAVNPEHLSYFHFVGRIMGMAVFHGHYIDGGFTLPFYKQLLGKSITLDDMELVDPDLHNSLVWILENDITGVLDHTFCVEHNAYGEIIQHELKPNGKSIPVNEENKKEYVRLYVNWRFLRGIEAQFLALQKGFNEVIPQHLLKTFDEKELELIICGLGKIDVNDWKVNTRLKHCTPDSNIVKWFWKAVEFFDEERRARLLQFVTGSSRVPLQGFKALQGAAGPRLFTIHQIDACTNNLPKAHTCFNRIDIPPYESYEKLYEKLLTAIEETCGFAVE

Biological target: Smad3 phosphorylated at the C-terminus (pSmad3C) (human (endogenous in ES-2)) (UniProt P84022)
Experiment: co-IP; immunoprecipitation with α-pSmad3C (overnight, 4°C) and protein A-sepharose from lysates of 10^8 ES-2 cells treated with TGF-β1 (1 h) or 2ME2 (16 h); 420 mM NaCl, 50 mM Hepes pH 7.8, 5 mM EDTA, 1% NP-40, 3% DTT; blots with α-Ski, α-Smurf2, α-tSmad2/3; control: sepharose beads alone

- binding: binds
Substance: Smurf2 (from UniProt Q9HAU4 1-748)
